According to PubChem BioAssay AID758 (NMMLSC, 2007):
Hit rate of the full screen: of about 190,000 compounds, about 110 (0.058%) were called active. Inconclusive results, whose numbers are uncertain, are shown with a selection of clear calls.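 The calls were made as follows: active = fluorescent GTP binding to Rab7 beads changed by at least 20 points from the 100% baseline, either direction, mostly lower; inconclusive = compound itself probably fluorescent, or too few beads counted; inactive = the rest.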

These compounds were tested on Rab7 GTPase wild type (dog), Bodipy-FL-GTP binding (assay: modulators of GTP binding to Rab7, primary screen, biochemical, wildtype, multiplex bead flow cytometry (AID 758;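 also: median green fluorescence of bound Bodipy-FL-GTP per Rab7 bead population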)). Settings: GST-Rab7 beads, fluorescent GTP binding, at 10 µM, actives lie on both sides, untreated = 100%, excess cold GTP = 0%.

Compound	GTP binding activity (percent of control)
CCCCc1ncc(CN2CCN(Cc3ccc(C)cc3)C(CCO)C2)[nH]1 (stereo unspecified)	inactive: 105%
COc1ccc2c(CC(=O)OCC(=O)Nc3ccccc3[N+](=O)[O-])coc2c1	inconclusive: 94%
CC(=O)Nc1ccc(N2CCCC2)cc1	inconclusive: 99%
CCOc1ccc(NC(=O)c2ccco2)c([N+](=O)[O-])c1	inconclusive: 102%
O=c1c(/C=N/OCc2ccc(Cl)cc2Cl)c[nH]n1-c1cccc(Cl)n1	inactive: 102%
COc1cccc(/C(O)=C/c2nc3ccc(C(=O)NCCc4ccc(Cl)cc4)cc3[nH]c2=O)c1	inconclusive: 104%
CN(Cc1ccccc1)C(=O)CCC(=O)N(C)Cc1ccccc1	inconclusive: 105%
C/C(=N/NC(=O)c1ccc(C)nc1)c1ccc2c(c1)CCCC2	inactive: 96%
CCCCCC(=O)NCc1c(C(F)(F)F)nn(C)c1N1CCOCC1	inactive: 97%
O=C(c1ccc2c(c1)OCO2)N1CCN(c2ncccn2)CC1	inconclusive: 100%
CCOC(=O)c1c(NC(=O)c2ccnn2C)sc(C)c1C	inactive: 99%
CC(C)Cn1c(N)c(C(=O)COC(=O)c2ccc3c(c2)OCCO3)c(=O)n(C)c1=O	inconclusive: 92%
Cn1c(=O)oc2cc(S(=O)(=O)NCCC(=O)NCCc3ccccc3)ccc21	inconclusive: 101%
c1ccc(-n2c(SCC3CCCCO3)nnc2-c2cnccn2)cc1 (stereo unspecified)	inconclusive: 93%
CCOC(=O)c1sc(NC(=O)c2cc3ccccc3o2)nc1C	inconclusive: 94%
C=CCOC(=O)C1=C[C@H](C2CCCCC2)[C@@H](CCCO)[C@H](OCC)O1	inactive: 99%
O=C(c1snnc1-c1ccccc1)N1CCOCC1	inactive: 100%
CCn1c(SCC(=O)N/N=C/c2ccc(C)o2)nnc1-c1ccc(C(C)(C)C)cc1	inconclusive: 101%
O=C(Nc1ccc(N2CCCCC2)cc1)c1ccc2ccccc2n1	inactive: 106%
C=CCNc1cnn(CC(C)=O)c(=O)c1Br	inconclusive: 107%
Cc1cccc(/C=N/N(CCO)C2=NS(=O)(=O)c3ccccc32)c1	inactive: 92%
O=C(c1ccco1)N1CCCN(Cc2nc(-c3cccs3)no2)CC1	inconclusive: 96%
Cc1cn2c(nc(=O)c3cccnc32)s1	inactive: 92%
O=C(NCCC1=CCCCC1)C(=O)NCc1ccncc1	inactive: 106%
COc1cc(OC)cc(C(=O)NNC(=S)Nc2ccc(S(N)(=O)=O)cc2)c1	inconclusive: 91%
CCc1ccc(C2C(C#N)=C(N)N(N3CCOCC3)C3=C2C(=O)CC(C)(C)C3)s1 (stereo unspecified)	inconclusive: 97%

A draw from above in order of number of heavy atoms, low to high.
Compound	GTP binding activity (percent of control)
CCOc1ccc(NC(=O)c2ccco2)c([N+](=O)[O-])c1	inconclusive: 102%
O=C(Nc1ccc(N2CCCCC2)cc1)c1ccc2ccccc2n1	inactive: 106%
CC(C)Cn1c(N)c(C(=O)COC(=O)c2ccc3c(c2)OCCO3)c(=O)n(C)c1=O	inconclusive: 92%
